{"source": "PubChem BioAssay AID1508597 (Cure First, 2020)", "assay": "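Knock-downs altering ovarian cancer cell survival with or without PARP inhibitor rucaparib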 (primary screen)", "cells": "human ovarian carcinoma lines grown from tumours: OCI-P5x (papillary serous) and OCI-C5x (clear cell)", "knock-down reagent": "siRNA pool against human genes, 1.25 pmol siRNA per well", "time to read-out": "72 h or 96 h, depending on the cell culture", "challenge": "rucaparib 20 µM (about IC30) or vehicle, present until read-out", "rucaparib or vehicle": "Rucaparib", "cell line": "OCI-C5x (clear cell)", "read-out": "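Luminescent ATP-based viability assay read 72 or 96 h after transfection, depending on culture, given as normalised percent viability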", "scale": "viability, normalised: higher = more viable cells remaining", "call rule": "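a well counts as a hit if its normalised viability is under 80 percent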", "meaning of the calls": "active = viability under 80%; inactive = viability 80% or more", "note": "Shown is an unselected part of the about 2,100 reagents, in one setting of the screen. 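Calls flag viability under 80% in either arm, not effects specific to rucaparib; the reference for percent is not stated.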 Reagent sequences are not shown. Not stated in the record: the 100% reference."}
{"Target gene": "MED22 (mediator complex subunit 22)", "technical replicate": "1", "viability, normalised (%)": 32, "activity call": "active"}
{"Target gene": "MED22 (mediator complex subunit 22)", "technical replicate": "2", "viability, normalised (%)": 38, "activity call": "active"}
{"Target gene": "MED22 (mediator complex subunit 22)", "technical replicate": "3", "viability, normalised (%)": 40.5, "activity call": "active"}
{"Target gene": "ZNF830 (zinc finger protein 830)", "technical replicate": "1", "viability, normalised (%)": 60.4, "activity call": "active"}
{"Target gene": "ZNF830 (zinc finger protein 830)", "technical replicate": "2", "viability, normalised (%)": 75.8, "activity call": "active"}
{"Target gene": "ZNF830 (zinc finger protein 830)", "technical replicate": "3", "viability, normalised (%)": 56, "activity call": "active"}
{"Target gene": "CAMK4 (calcium/calmodulin dependent protein kinase IV)", "technical replicate": "1", "viability, normalised (%)": 55.2, "activity call": "active"}
{"Target gene": "CAMK4 (calcium/calmodulin dependent protein kinase IV)", "technical replicate": "2", "viability, normalised (%)": 54.1, "activity call": "active"}
{"Target gene": "CAMK4 (calcium/calmodulin dependent protein kinase IV)", "technical replicate": "3", "viability, normalised (%)": 60.6, "activity call": "active"}
{"Target gene": "PIK3CD", "technical replicate": "1", "viability, normalised (%)": 41.9, "activity call": "active"}
{"Target gene": "PIK3CD", "technical replicate": "2", "viability, normalised (%)": 47.4, "activity call": "active"}
{"Target gene": "PIK3CD", "technical replicate": "3", "viability, normalised (%)": 44, "activity call": "active"}
{"Target gene": "ATP7A (ATPase copper transporting alpha)", "technical replicate": "1", "viability, normalised (%)": 60.6, "activity call": "active"}
{"Target gene": "ATP7A (ATPase copper transporting alpha)", "technical replicate": "2", "viability, normalised (%)": 60.7, "activity call": "active"}
{"Target gene": "ATP7A (ATPase copper transporting alpha)", "technical replicate": "3", "viability, normalised (%)": 46.4, "activity call": "active"}
{"Target gene": "DDX25 (DEAD-box helicase 25)", "technical replicate": "1", "viability, normalised (%)": 52.9, "activity call": "active"}
{"Target gene": "DDX25 (DEAD-box helicase 25)", "technical replicate": "2", "viability, normalised (%)": 41.2, "activity call": "active"}
{"Target gene": "DDX25 (DEAD-box helicase 25)", "technical replicate": "3", "viability, normalised (%)": 36.4, "activity call": "active"}
{"Target gene": "CHMP4B (charged multivesicular body protein 4B)", "technical replicate": "1", "viability, normalised (%)": 78.9, "activity call": "active"}
{"Target gene": "CHMP4B (charged multivesicular body protein 4B)", "technical replicate": "2", "viability, normalised (%)": 95.1, "activity call": "inactive"}
{"Target gene": "CHMP4B (charged multivesicular body protein 4B)", "technical replicate": "3", "viability, normalised (%)": 80, "activity call": "inactive"}
{"Target gene": "TESK1 (testis associated actin remodelling kinase 1)", "technical replicate": "1", "viability, normalised (%)": 44.2, "activity call": "active"}
{"Target gene": "TESK1 (testis associated actin remodelling kinase 1)", "technical replicate": "2", "viability, normalised (%)": 53.8, "activity call": "active"}
{"Target gene": "TESK1 (testis associated actin remodelling kinase 1)", "technical replicate": "3", "viability, normalised (%)": 53.5, "activity call": "active"}
{"Target gene": "KDM6B (lysine demethylase 6B)", "technical replicate": "1", "viability, normalised (%)": 62.2, "activity call": "active"}
{"Target gene": "KDM6B (lysine demethylase 6B)", "technical replicate": "2", "viability, normalised (%)": 36.8, "activity call": "active"}
{"Target gene": "KDM6B (lysine demethylase 6B)", "technical replicate": "3", "viability, normalised (%)": 45, "activity call": "active"}
{"Target gene": "RAPGEF3 (Rap guanine nucleotide exchange factor 3)", "technical replicate": "1", "viability, normalised (%)": 47.7, "activity call": "active"}
{"Target gene": "RAPGEF3 (Rap guanine nucleotide exchange factor 3)", "technical replicate": "2", "viability, normalised (%)": 49.4, "activity call": "active"}
{"Target gene": "RAPGEF3 (Rap guanine nucleotide exchange factor 3)", "technical replicate": "3", "viability, normalised (%)": 66.5, "activity call": "active"}
{"Target gene": "H4C3 (H4 clustered histone 3)", "technical replicate": "1", "viability, normalised (%)": 46.2, "activity call": "active"}
{"Target gene": "H4C3 (H4 clustered histone 3)", "technical replicate": "2", "viability, normalised (%)": 37.6, "activity call": "active"}
{"Target gene": "H4C3 (H4 clustered histone 3)", "technical replicate": "3", "viability, normalised (%)": 39.9, "activity call": "active"}

3 entries from above, arranged by “viability, normalised (%)”, descending:
{"Target gene": "CAMK4 (calcium/calmodulin dependent protein kinase IV)", "technical replicate": "3", "viability, normalised (%)": 60.6, "activity call": "active"}
{"Target gene": "PIK3CD", "technical replicate": "2", "viability, normalised (%)": 47.4, "activity call": "active"}
{"Target gene": "PIK3CD", "technical replicate": "1", "viability, normalised (%)": 41.9, "activity call": "active"}
